Measured values reported in the supplement of paper PMC10849652.
This is one part of the list.

Protein sequences, listed by entry. Tags and fused reporters are not part of them. Lines headed by an entry give the natural chain unless they say otherwise; changes in a name come on top.
UniProt P55083: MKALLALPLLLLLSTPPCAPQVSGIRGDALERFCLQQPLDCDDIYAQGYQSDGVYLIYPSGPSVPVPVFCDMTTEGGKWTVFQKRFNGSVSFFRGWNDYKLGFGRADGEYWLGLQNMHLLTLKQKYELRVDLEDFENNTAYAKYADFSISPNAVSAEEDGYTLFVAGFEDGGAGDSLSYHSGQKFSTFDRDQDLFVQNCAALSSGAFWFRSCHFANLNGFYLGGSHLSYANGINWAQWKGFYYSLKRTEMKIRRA
MCTS2P, A0A3B3IRV3, UniProt A0A3B3IRV3, whole entry, looked up: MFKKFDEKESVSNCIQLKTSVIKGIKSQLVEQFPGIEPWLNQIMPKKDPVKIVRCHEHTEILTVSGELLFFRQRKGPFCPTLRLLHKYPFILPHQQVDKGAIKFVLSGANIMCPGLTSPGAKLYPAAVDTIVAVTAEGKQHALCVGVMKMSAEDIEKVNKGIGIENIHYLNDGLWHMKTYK
UniProt Q5U5Q3: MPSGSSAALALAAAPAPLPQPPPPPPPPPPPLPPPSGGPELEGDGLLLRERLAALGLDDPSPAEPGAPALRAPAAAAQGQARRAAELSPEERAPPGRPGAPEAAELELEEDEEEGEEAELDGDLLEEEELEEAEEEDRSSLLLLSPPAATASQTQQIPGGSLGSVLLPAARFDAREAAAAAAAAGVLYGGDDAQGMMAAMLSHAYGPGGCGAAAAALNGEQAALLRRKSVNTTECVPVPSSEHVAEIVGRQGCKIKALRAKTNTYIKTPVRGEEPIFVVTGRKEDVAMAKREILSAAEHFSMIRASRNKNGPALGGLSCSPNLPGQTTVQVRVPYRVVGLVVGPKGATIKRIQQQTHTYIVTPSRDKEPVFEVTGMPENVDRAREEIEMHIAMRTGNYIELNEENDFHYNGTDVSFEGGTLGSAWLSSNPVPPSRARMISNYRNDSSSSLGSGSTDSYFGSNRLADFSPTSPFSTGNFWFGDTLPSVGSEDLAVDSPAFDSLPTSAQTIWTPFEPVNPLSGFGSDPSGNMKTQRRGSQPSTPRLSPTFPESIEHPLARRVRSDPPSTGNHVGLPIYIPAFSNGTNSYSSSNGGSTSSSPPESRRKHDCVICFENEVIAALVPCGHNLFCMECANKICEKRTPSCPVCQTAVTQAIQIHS
UniProt Q96EZ8, whole entry, looked up: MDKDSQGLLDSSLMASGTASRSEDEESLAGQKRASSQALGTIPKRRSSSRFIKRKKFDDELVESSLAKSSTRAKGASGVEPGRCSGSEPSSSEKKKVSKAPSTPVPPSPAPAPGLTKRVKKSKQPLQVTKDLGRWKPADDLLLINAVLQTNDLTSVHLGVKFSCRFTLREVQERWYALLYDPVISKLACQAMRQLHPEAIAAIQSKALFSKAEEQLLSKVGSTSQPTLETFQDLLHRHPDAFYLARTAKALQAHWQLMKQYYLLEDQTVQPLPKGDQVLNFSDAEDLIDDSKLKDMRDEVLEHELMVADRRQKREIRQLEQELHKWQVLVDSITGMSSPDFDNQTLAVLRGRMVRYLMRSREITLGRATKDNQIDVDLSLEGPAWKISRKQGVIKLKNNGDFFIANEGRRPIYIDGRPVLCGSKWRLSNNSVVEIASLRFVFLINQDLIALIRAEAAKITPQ
UniProt Q8TC05: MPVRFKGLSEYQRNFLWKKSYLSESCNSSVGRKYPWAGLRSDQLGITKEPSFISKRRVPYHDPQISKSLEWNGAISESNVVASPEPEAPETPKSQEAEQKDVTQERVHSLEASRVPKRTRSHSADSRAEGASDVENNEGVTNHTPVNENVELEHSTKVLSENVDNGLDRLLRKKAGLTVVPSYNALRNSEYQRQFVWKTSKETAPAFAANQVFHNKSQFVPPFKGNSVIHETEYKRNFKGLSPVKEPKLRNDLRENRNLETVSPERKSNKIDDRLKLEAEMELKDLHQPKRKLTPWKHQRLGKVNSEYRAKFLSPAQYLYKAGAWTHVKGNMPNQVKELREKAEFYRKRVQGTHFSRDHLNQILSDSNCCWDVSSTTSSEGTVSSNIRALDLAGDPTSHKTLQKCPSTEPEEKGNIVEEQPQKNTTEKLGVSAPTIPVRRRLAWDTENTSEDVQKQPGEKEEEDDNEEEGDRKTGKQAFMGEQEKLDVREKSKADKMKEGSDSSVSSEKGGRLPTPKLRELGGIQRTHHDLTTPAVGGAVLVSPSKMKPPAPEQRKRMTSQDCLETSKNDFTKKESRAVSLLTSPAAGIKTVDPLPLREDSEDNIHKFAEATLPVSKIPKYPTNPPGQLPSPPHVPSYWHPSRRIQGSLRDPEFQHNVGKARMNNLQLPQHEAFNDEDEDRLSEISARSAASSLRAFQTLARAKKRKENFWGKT
UniProt Q9P086: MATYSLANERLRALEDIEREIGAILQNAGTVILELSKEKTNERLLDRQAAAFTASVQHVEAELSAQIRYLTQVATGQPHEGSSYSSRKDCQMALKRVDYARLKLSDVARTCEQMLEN
UniProt O15151: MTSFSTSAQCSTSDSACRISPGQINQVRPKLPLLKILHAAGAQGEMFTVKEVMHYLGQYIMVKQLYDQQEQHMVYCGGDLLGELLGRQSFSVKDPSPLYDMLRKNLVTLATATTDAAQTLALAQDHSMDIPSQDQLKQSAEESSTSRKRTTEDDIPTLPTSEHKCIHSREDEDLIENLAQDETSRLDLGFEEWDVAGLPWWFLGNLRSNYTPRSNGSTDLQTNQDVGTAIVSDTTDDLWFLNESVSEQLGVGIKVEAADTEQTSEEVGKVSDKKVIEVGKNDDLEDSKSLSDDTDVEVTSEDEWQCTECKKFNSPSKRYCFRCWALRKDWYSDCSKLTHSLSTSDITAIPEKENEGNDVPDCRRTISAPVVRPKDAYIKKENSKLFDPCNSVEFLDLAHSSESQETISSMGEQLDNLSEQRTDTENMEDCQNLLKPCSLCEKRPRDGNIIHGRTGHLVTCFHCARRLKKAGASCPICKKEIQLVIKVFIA
UniProt Q8N635: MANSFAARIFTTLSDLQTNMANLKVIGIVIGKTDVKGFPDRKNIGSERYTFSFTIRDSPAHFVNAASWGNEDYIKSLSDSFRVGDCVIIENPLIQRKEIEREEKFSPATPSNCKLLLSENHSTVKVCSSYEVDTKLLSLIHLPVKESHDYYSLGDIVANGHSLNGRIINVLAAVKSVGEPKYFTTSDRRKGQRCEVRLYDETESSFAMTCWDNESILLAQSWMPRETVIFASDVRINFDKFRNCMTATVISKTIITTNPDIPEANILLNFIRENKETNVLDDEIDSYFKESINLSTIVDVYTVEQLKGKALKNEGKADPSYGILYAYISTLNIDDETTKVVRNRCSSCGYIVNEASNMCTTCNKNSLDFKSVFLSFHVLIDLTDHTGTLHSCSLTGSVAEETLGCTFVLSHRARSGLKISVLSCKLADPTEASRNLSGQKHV
UniProt Q8NI22: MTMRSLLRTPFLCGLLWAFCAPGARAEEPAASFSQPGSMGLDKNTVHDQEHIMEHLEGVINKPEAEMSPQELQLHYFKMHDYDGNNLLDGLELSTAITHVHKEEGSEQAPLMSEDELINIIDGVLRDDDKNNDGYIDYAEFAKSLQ
UniProt Q5VZF2: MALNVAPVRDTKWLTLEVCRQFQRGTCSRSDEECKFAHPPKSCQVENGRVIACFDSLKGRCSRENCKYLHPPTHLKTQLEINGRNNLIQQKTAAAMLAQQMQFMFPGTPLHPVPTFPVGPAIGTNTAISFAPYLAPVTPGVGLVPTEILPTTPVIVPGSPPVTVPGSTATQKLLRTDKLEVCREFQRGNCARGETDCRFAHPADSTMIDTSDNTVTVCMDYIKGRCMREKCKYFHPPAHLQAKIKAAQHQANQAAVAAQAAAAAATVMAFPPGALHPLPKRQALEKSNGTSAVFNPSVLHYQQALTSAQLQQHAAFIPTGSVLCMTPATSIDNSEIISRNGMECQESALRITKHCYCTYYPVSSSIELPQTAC
UniProt Q9H7H0: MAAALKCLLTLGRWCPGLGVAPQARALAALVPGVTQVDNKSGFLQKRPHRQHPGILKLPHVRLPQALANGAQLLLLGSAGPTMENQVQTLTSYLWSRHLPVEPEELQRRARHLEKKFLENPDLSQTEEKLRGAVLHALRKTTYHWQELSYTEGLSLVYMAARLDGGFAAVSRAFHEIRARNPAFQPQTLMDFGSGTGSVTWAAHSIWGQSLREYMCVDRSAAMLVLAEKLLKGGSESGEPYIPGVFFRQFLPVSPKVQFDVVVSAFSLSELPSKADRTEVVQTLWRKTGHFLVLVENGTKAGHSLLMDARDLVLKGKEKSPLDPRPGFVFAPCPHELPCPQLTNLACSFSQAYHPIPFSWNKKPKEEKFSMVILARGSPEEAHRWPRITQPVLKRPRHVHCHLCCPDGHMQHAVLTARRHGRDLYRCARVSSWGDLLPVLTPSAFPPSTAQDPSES
UniProt O43462: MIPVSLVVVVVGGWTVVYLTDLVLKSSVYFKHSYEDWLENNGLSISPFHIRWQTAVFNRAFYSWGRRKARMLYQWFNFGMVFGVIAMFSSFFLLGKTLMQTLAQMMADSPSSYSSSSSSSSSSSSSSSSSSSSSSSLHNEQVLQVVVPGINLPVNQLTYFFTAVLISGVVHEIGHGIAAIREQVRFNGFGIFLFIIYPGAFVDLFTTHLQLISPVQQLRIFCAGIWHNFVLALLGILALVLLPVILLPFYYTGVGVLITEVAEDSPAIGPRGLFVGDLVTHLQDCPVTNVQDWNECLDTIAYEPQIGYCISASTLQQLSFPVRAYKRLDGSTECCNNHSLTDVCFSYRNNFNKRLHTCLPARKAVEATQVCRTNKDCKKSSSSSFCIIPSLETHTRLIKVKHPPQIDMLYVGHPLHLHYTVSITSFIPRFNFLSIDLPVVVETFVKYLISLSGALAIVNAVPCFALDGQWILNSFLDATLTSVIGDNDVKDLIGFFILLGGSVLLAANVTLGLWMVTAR
UniProt Q96DN6: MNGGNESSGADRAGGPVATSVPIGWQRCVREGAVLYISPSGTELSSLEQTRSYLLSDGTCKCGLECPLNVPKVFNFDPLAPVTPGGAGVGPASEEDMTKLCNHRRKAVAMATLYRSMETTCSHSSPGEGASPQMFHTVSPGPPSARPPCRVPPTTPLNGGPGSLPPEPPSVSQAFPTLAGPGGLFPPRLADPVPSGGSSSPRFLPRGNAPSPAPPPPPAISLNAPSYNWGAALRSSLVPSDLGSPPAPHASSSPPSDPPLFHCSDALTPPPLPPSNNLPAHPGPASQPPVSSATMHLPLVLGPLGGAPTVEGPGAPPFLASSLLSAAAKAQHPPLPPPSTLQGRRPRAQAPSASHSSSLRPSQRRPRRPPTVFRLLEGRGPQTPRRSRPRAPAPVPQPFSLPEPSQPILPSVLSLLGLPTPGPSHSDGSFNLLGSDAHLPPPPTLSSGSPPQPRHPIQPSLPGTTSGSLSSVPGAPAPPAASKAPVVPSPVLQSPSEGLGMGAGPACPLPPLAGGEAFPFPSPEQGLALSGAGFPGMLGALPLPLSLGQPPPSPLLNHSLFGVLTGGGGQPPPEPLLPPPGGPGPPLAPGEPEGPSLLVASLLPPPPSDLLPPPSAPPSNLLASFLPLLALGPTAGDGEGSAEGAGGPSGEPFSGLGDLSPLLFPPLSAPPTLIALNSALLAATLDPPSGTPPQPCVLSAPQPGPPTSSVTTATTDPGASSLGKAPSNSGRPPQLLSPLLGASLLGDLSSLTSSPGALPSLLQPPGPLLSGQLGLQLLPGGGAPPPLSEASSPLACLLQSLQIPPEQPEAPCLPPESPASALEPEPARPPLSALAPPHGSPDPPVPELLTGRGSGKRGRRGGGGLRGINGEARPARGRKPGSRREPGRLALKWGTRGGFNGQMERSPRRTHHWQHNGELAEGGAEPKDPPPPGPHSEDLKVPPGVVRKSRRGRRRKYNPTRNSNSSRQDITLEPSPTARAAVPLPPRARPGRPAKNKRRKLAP
UniProt P21741: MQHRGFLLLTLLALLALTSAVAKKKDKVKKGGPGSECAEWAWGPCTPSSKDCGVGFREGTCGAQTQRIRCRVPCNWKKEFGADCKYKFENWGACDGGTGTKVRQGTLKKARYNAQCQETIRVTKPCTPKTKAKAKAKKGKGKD
UniProt O95243: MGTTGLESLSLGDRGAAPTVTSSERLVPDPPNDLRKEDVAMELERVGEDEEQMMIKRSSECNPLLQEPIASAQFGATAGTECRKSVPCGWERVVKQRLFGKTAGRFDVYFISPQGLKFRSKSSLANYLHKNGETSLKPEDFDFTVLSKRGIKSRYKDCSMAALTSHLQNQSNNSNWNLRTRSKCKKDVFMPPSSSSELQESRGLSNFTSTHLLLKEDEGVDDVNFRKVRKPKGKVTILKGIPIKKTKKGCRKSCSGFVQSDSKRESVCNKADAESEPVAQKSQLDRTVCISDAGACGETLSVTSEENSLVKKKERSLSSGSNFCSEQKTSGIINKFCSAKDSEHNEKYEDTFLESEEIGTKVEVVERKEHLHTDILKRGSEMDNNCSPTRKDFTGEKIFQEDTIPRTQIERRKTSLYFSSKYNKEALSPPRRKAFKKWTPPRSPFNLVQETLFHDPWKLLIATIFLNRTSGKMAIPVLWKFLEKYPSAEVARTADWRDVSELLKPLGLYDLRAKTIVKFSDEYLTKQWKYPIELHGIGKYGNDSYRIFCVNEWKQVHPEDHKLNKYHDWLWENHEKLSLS

Legend:
Assay in all cases: log2 fold change, soluble protein after heating vs DMSO (PISA); higher = thermal stabilisation; K562 lysate, 10 uM; active = over 0.2 and 3.5 SD of the protein, either way, in both replicates (recomputed)
[1] = compound: CC(=O)c1cnc2ccc(-c3cc(Cl)c(O)c(Cl)c3)nc2c1N[C@H]1CC[C@H](CN(C)C)CC1
How it was run: (§1)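 Thermal stability, expressed as log-two fold change relative to solvent controls, is given from duplicates. Crude K562 extract in PBS pH 7.4 with 1 mM MgCl2, at 1 mg/mL protein, was treated with 10 μM compound for 30 min and heated in aliquots for 3 min across 48°C-58°C. After pooling, adjustment to 0.5% NP-40 at 4°C and centrifugation at 21,000xg for 90 min, supernatant protein was measured by TMTpro 16plex LC-MS/MS with channel sums equalised.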

[2] = compound: CC(C)C1=C2N=C(C=C(N2N=C1)NCC3=CC=CC=C3)NCCCCCCN
How it was run: as §1

[3] = compound: CC1=C(C(CC(=O)N1)C2=CC=C(C=C2)C(F)(F)F)C(=O)NC3=C(C=C4C(=C3)C=NN4)F
How it was run: as §1

[4] = compound: CC1=C(C2=C(C=C1)C(=O)C3=CC=CC=C3N2CCCN)C
How it was run: as §1

[5] = compound: CC1=C(C=C(C=C1)NC(=O)C2=CC(=CC=C2)C(C)(C)C#N)NC3=CC4=C(C=C3)N=CN(C4=O)C
How it was run: as §1

[6] = compound: CC1=CC=C(C=C1)SC2=C3C=C(SC3=CN=C2)C(=O)N
How it was run: as §1

vemurafenib = compound: CCCS(=O)(=O)Nc1ccc(F)c(C(=O)c2c[nH]c3ncc(-c4ccc(Cl)cc4)cc23)c1F [vemurafenib]
How it was run: as §1

[7] = compound: CCCS(=O)(=O)Nc1ccc(F)c(C(=O)c2c[nH]c3ncc(Cl)cc23)c1F
How it was run: as §1

volasertib = compound: CC[C@@H]1C(=O)N(C)c2cnc(Nc3ccc(C(=O)N[C@H]4CC[C@H](N5CCN(CC6CC6)CC5)CC4)cc3OC)nc2N1C(C)C [volasertib]
How it was run: as §1

[8] = compound: CCn1cc(-c2ccnc3[nH]c(-c4cccc(CN(C)C)c4)cc23)c(-c2ccc(NC(=O)N(C)C)cc2)n1
How it was run: as §1

[9] = compound: CN1CCC(CNc2ccc3ncc(-c4cccc(OC(F)(F)F)c4)n3n2)CC1
How it was run: as §1

saracatinib = compound: CN1CCN(CCOc2cc(OC3CCOCC3)c3c(Nc4c(Cl)ccc5c4OCO5)ncnc3c2)CC1 [saracatinib]
How it was run: as §1

sotrastaurin = compound: CN1CCN(c2nc(C3=C(c4c[nH]c5ccccc45)C(=O)NC3=O)c3ccccc3n2)CC1 [sotrastaurin]
How it was run: as §1

[10] = compound: CC[C@@H]1C(=O)N(C)c2cnc(Nc3ccc(C(=O)NC4CCN(C)CC4)cc3OC)nc2N1C1CCCC1
How it was run: as §1

ralimetinib = compound: CC(C)(C)Cn1c(N)nc2ccc(-c3[nH]c(C(C)(C)C)nc3-c3ccc(F)cc3)nc21 [ralimetinib]
How it was run: as §1

[11] = compound: CC(C)(O)CC(=O)NCCn1ccc2ncnc(Nc3ccc(Oc4cccc(C(F)(F)F)c4)c(Cl)c3)c21
How it was run: as §1

[12] = compound: CC1=C(C=C(C=C1)NC(=O)C2=CC(=CC=C2)N(C)C)NC(=O)C3=CC=C(C=C3)O
How it was run: as §1

[13] = compound: CCn1c(C(=O)N(C2CC2)C2CC2)cc2c3c(ncn3C)c(Nc3cc(C)n(C)n3)nc21
How it was run: as §1

ibrutinib = compound: C=CC(=O)N1CCC[C@@H](n2nc(-c3ccc(Oc4ccccc4)cc3)c3c(N)ncnc32)C1 [ibrutinib]
How it was run: as §1

barasertib = compound: CCN(CCCOc1ccc2c(Nc3cc(CC(=O)Nc4cccc(F)c4)[nH]n3)ncnc2c1)CCOP(=O)(O)O [barasertib]
How it was run: as §1

Measured: log2 fold change

MFSD12 isoform 3 (UniProt Q6NUT3)
inactive: [1] 0.008 | [2] 0.053 | [3] 0.221 | [4] -0.041 | [5] 0.048 | [6] -0.066 | vemurafenib -0.073 | [7] 0.068 | volasertib 0.038 | [8] -0.16 | [9] -0.018 | saracatinib 0.103 | sotrastaurin -0.012

MFAP4 isoform 2 (UniProt P55083)
inactive: [10] -0.021

MCTS2P, A0A3B3IRV3
inactive: [1] -0.347 | ralimetinib -0.03 | [11] -0.085 | [2] -0.036 | [4] 0 | [5] -0.148 | [12] 0.031 | [6] -0.14 | [7] -0.077 | volasertib -0.049 | [13] 0.024 | saracatinib 0.096 | sotrastaurin -0.133

MEX3C (UniProt Q5U5Q3)
inactive: [2] 0.039 | [3] -0.037 | [5] 0.064 | sotrastaurin -0.024

MCRS1 isoform 2 (UniProt Q96EZ8)
inactive: ibrutinib 0.067 | vemurafenib 0.103 | barasertib 0.18 | [8] 0.02 | [9] -0.081

MDM1 (UniProt Q8TC05)
active: [8] -1.5 | [9] 0.512
inactive: [1] -0.006 | ralimetinib 0.037 | [11] -0.054 | [2] -0.029 | [3] -0.027 | [4] 0.022 | [12] -0.019 | [6] -0.079 | vemurafenib 0.024 | [7] 0.053 | [10] -0.05 | volasertib 0.024 | [13] 0.075 | saracatinib 0.013

MED11 (UniProt Q9P086)
inactive: ibrutinib -0.074 | [2] -0.104 | [4] 0.051 | [5] 0.064 | vemurafenib 0.366 | barasertib 0.158 | saracatinib 0.131 | sotrastaurin -0.024

Taken from the results shown (two entries):
MCTS2P, A0A3B3IRV3
inactive: [1] -0.347 | ralimetinib -0.03 | [11] -0.085 | [2] -0.036 | [4] 0 | [5] -0.148 | [12] 0.031 | [6] -0.14 | [7] -0.077 | volasertib -0.049 | [13] 0.024 | saracatinib 0.096 | sotrastaurin -0.133

MEX3C (UniProt Q5U5Q3)
inactive: [2] 0.039 | [3] -0.037 | [5] 0.064 | sotrastaurin -0.024

Remaining list, next part

MDM4 (UniProt O15151)
inactive: [4] 0.216 | [5] -0.033 | vemurafenib 0.013 | [10] 0.027 | [8] 0.081 | [9] -0.09 | saracatinib 0.227 | sotrastaurin 0.125

MEIOB isoform 2 (UniProt Q8N635)
inactive: [3] 0.088 | [4] -0.239 | [8] -0.048 | [9] -0.181 | saracatinib -0.019

MATK isoform 2 (UniProt P42679)
inactive: [1] -0.019 | ralimetinib 0.083 | [11] 0.271 | [3] 0.102 | [12] -0.016 | [6] -0.025 | [7] -0.036 | volasertib -0.047 | [13] 0.201 | [8] -0.137 | [9] 0.078

MED28 (UniProt Q9H204)
inactive: [1] -0.067 | ralimetinib -0.032 | [11] -0.025 | [2] -0.002 | [3] -0.088 | [4] -0.039 | [5] 0.11 | [12] 0.021 | [6] 0.009 | [7] -0.004 | volasertib 0.096 | [13] 0.053 | [8] -0.063 | [9] 0.322 | saracatinib -0.032 | sotrastaurin -0.028

MCFD2 isoform 2 (UniProt Q8NI22)
inactive: [1] 0.03 | [6] 0.217 | [7] -0.008 | volasertib 0.154

MBNL2 (UniProt Q5VZF2)
inactive: [1] 0.084 | ralimetinib 0.046 | [11] -0.002 | [2] -0.174 | [5] -0.039 | [12] -0.039 | [6] -0.059 | vemurafenib -0.098 | [7] -0.076 | [10] 0.119 | volasertib -0.048 | [13] -0.06 | [8] -0.029 | [9] 0.296 | sotrastaurin -0.101

METTL17 isoform 3 (UniProt Q9H7H0)
inactive: [3] -0.027 | [10] 0.093 | [8] -0.027 | [9] 0.133

MBTPS2 (UniProt O43462)
inactive: [5] 0.044 | [10] -0.268 | sotrastaurin -0.111

MBD6 (UniProt Q96DN6)
inactive: [4] -0.292 | saracatinib 0.281

MCEMP1 (UniProt Q8IX19)
inactive: [1] -0.174 | [4] -0.114 | [5] -0.099 | [6] -0.018 | [7] -0.145 | volasertib 0.007 | saracatinib -0.042 | sotrastaurin -0.049

METAP2 isoform 2 (UniProt P50579)
inactive: ralimetinib -0.07 | [11] -0.124 | [3] 0.032 | [12] -0.246 | [10] -0.04 | [13] 0.079 | [8] -0.101 | [9] 0.191

MDK (UniProt P21741)
inactive: [1] 0.01 | ralimetinib 0.018 | [11] -0.039 | [2] -0.076 | [3] 0.024 | [4] 0.025 | [5] -0.131 | [12] 0.043 | [6] 0.01 | [7] 0.012 | [10] 0.194 | volasertib -0.114 | [13] -0.043 | [8] 0.333 | [9] -0.224 | saracatinib 0.033 | sotrastaurin 0.035

MBD4 (UniProt O95243)
inactive: [1] 0.248 | [3] -0.034 | [4] 0.006 | [5] -0.007 | [6] 0.127 | [7] -0.153 | [10] 0.036 | volasertib -0.083 | [8] 0.007 | [9] -0.021 | saracatinib -0.223 | sotrastaurin 0.106
